The values below come from PubChem BioAssay AID2685 (National Center for Advancing Translational Sciences (NCATS), 2010).

The assay is described as follows: qHTS Assay for Lipid Storage Modulators in Drosophila S3 Cells.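 As to cell number change: cells counted by Cell Tracker Red CMTPX staining in the red channel.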 The settings on record: BODIPY lipid droplet fluorescence, 18-24 h; for cell number change: measured here: cell count max response, cells fed with added oleic acid. A digest of the protocol: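 Laser-scanning cytometry quantifies lipid droplet accumulation (500–530 nm total intensity; droplet/cell object ratio) in oleic acid-fed (400 uM added) Drosophila S3 cells treated with a concentration series. 20 uM Triacsin C defined 100% inhibition.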
A general note: In qHTS, concentration-response curves come from the screen itself.

[1] abbreviates: measured here: cell number channel AC50, cells fed with added oleic acid.
Setting [2] is: measured here: lipid fluorescence (Fed channel) AC50, cells fed with added oleic acid.

The structures appear in SMILES notation. Some of the results follow. Further columns of the screen follow, without active or inactive calls. Compounds called inactive in the main read-out are mostly missing here. The note in brackets gives the kind of curve behind each potency; many fits are weak.

With `C=CCNC(=O)COC(=O)COc1ccc(Cl)cc1C`, the cell number change came to 0.966%. A word on the AC50: it is the midpoint of the concentration-response curve, whichever way the signal moves. A lower AC50 goes with greater potency. Regarding `COc1cccc(CNCc2cccnc2)c1OCc1ccccc1`, the cell number change came out at 2.39%. The AC50 under setting [1] is 0.164 µM [falling, full curve, poor fit].

As for `Cc1ccccc1OCC(=O)OCC(=O)c1ccc(OCc2ccccc2)cc1`, the cell number change came out at 5.56%. In addition, under setting [2], the AC50 was 0.461 µM [falling, single point]. Turning to `Cc1cccc(NC(=O)c2ccc(S(=O)(=O)N(C)C)cc2)n1`, the cell number change is -4.42%. Further, under setting [2], the AC50 is 6.51 µM [rising, single point].

For `CN(C)S(=O)(=O)c1ccc(NC(=O)CN2CCOCC2)cc1`, the cell number change is -9.32%. Moreover, the half-maximal activity concentration (AC50) under setting [2] was 29.1 µM [falling, single point]. In the case of `CCCNC(=O)CN1CCN(c2cc3ccccc3c(Cl)n2)CC1`, the cell number change is -13.3%. On the same count and under the same terms, with `O=C(Nc1ccc(-n2nncc2-c2ccco2)cc1)c1cc2ccccc2oc1=O` the figure was 176%. On to `CC1=NN(c2nc(C)cc(C)n2)C(=O)C1CCC(C)C` (configuration not stated), for which the cell number change turned out to be 103%. Further, the AC50 under setting [1] was 29.1 µM [rising, single point].

Regarding `CCn1c(/C=C/Nc2ccccc2)[n+](CC)c2cc(Cl)c(Cl)cc21`, the cell number change was -9.95%. The concentration at half-maximal activity (AC50) under setting [1] was 6.51 µM [falling, single point]. For the compound `O=C(/C=C/c1ccccc1)NCC(=O)N/N=C\c1cccnc1`, the cell number change is -21.6%. Also, the AC50 under setting [1] is 2.31 µM [rising, partial curve]. Moreover, the AC50 under setting [2] was 0.517 µM [rising, full curve, poor fit].

With `CCC1CCCCN1C(=O)c1nn2cccnc2c1Cl` (configuration not stated), the cell number change is 74.9%. Under setting [1], the AC50 is 20.6 µM [rising, single point]. Further, under setting [2], the AC50 is 6.51 µM [falling, single point].

Turning to `Cc1cccc(NC(=O)c2ccc(S(=O)(=O)C(F)F)cc2)c1C`, the cell number change worked out at 11.2%. For the same compound, under setting [2], the AC50 was 2.91 µM [rising, partial curve, poor fit].

As to `COc1ccc(C(=O)Nc2sc3c(c2C(=O)NCc2ccco2)CCCC3)cc1OC`, the cell number change worked out at 6.74%. Also, under setting [2], the AC50 is 4.61 µM [rising, full curve].

Take `Cc1cccc(N(CC(=O)Nc2ccccc2F)S(C)(=O)=O)c1`: under setting [2], the AC50 was 5.8 µM [falling, single point]. As for `Cc1cc(C)cc(NC(=O)CSc2nc(N)c(NC(=O)c3ccc(Br)o3)c(=O)[nH]2)c1`, the cell number change came to 24.4%. Under setting [2], the AC50 is 0.58 µM [rising, single point]. As to `COc1ccc(NC(=O)CSc2c(C)nn(-c3nnc(C)c(=O)[nH]3)c2C)cc1`, the cell number change was -98.7%. For the same compound, the AC50 under setting [1] is 32.6 µM [falling, partial curve]. For the same compound, the AC50 under setting [2] was 32.6 µM [falling, partial curve]. Turning to `O=C(Nc1ccc(Cl)cc1F)C1CCCN(C2=NS(=O)(=O)c3ccccc32)C1` (configuration not stated), the AC50 under setting [2] was 18.4 µM [falling, single point].
